Results: PubChem BioAssay AID602313 (National Center for Advancing Translational Sciences (NCATS), 2012)
The campaign covered roughly 390,000 compounds. About 760 (0.19%) were called active. This list was built around the results that the source calls inconclusive (neither active nor inactive); the mix of calls is not that of the screen. The call rests on the fitted dose curve; in most records, active means well fitted inhibition curve with a large enough effect; inconclusive means small, poorly fitted or top-dose-only effect; inactive means flat fitted curve, though single readings scatter. Potencies of inconclusive entries are doubtful fits and often do not repeat.

Assay: qHTS for Inhibitors of Vif-A3F Interactions: qHTS; further: nearly all actives have a fitted effect of over 65% in size
Conditions: HeLa A3F-eYFP + Vif (tagged APOBEC3F with the HIV-1 protein that degrades it), YFP fluorescence increase; series mostly up to 46.1 µM
Outline: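 HeLa cells stably expressing Vif plus C-terminally eYFP-tagged A3F were seeded, incubated overnight at 37 deg C, dosed with compound, incubated overnight again at 37 deg C. Yellow fluorescence (Ex 488/Em 500-530) reported blocked Vif-mediated A3F-eYFP degradation.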
Potency means the concentration at half of the fitted maximal effect.

SMILES	Potency
CC(=O)Nc1ccc(S(=O)(=O)N(C)CC(=O)N/N=C/c2ccncc2)cc1	inconclusive: 35.5 µM [inhibitor, single point]
CC1(C)CC(=O)C(C=Nc2cc(C(=O)c3ccccc3)ccc2N)=C(O)C1	active: 28.2 µM
Cc1ccc2nc(/C(C#N)=C/c3ccccc3F)[nH]c2c1	inactive
N#Cc1c(-c2ccc(Cl)cc2)cc(-c2cccs2)nc1SCC(=O)O	inactive
CC1CCC(NS(=O)(=O)c2cccc3nsnc23)CC1 (configuration not stated)	inconclusive: 3.16 µM [inhibitor, partial curve, poor fit]
CCn1cc(CNC(=O)c2cc(-c3ccc(C)cc3)nc3ccc(Br)cc23)c(C)n1	inconclusive: 25.1 µM [inhibitor, single point]
CC(C)c1ccc(S(=O)(=O)/N=C2\C=C(NS(=O)(=O)c3ccccc3)C(=O)c3ccccc32)cc1	inactive
COc1cccc(Nc2nc3ccccc3n3nnnc23)c1	inconclusive: 35.5 µM [inhibitor, single point]
COc1ccc(-c2cc(-c3ccc(C)cc3)nc3c2COc2ccccc2-3)cc1	inactive
Cc1ccc(-c2csc(/C=C3\SC(C)C(=O)N3CC(=O)Nc3ccccc3F)n2)cc1 (configuration not stated)	inconclusive: 35.5 µM [inhibitor, single point]
O=C(COC(=O)c1ccc2c(c1)OCCO2)Nc1ccc(F)cc1	inconclusive: 6.31 µM [inhibitor, single point]
COc1ccc(/C=C/C(=O)CC(O)(c2ccccc2)C(F)(F)F)cc1 (configuration not stated)	inactive
Cc1ccc(CN2C(=O)C(O)(c3c(C)[nH]c4ccccc34)c3ccccc32)cc1 (configuration not stated)	inconclusive: 35.5 µM [inhibitor, single point]
COc1ccc(NC(=O)C2CCC(CNS(=O)(=O)c3cccc4nsnc34)CC2)cc1OC (configuration not stated)	inactive
COc1ccc2[nH]c3c(c2c1)CCNC3c1ccc([N+](=O)[O-])o1 (configuration not stated)	active: 25.1 µM
NC1=NC(=O)/C(=C/c2c(OS(=O)(=O)c3ccc(Cl)cc3)ccc3ccccc23)S1	inactive
CCc1ccc2oc(C(=O)NCC(c3ccc(OC)cc3)N3CCCCC3)c(C)c2c1 (configuration not stated)	inconclusive: 31.6 µM [inhibitor, single point]
N#C/C(=C\c1ccccc1[N+](=O)[O-])C(=O)NC1CCCCC1	inconclusive: 15.8 µM [inhibitor, partial curve, poor fit]
CCN(CC)C(=O)[C@H]1C[C@H](CC(=O)NC/C=C(\C)CCC=C(C)C)C(=O)N2CCc3c([nH]c4ccc(Cl)cc34)[C@]12C	inconclusive: 35.5 µM [inhibitor, partial curve, poor fit]
N#Cc1c(-c2ccccc2)cc(-c2ccccc2)[nH]c1=O	inactive
COc1cc(/C=N/NC(=O)c2nonc2C)ccc1O	inactive

SMILES	Potency
O=S(=O)(c1ccc2ccccc2c1)N1CCCCCC1	inactive
CCOc1ccc(-c2c(C#N)c(N)nc3sc(C(=O)c4ccccc4)c(N)c23)cc1	inconclusive: 3.16 µM [inhibitor, single point]
O/C(=C\c1ccc2ccccc2n1)c1ccc(O)cc1O	inconclusive: 35.5 µM [inhibitor, single point]
COc1cccc2sc(NNC(=O)C3=COCCO3)nc12	inconclusive: 15.8 µM [inhibitor, partial curve, poor fit]
C=CCC[C@@H](Cc1ccc(F)cc1)C(=O)OCCNC(=O)[C@@H](CC=C)CC(=O)N(CCO)Cc1ccccc1	inactive
CCc1cc(=O)oc2c3c(cc(OCC(=O)NCCCC(=O)O)c12)OC(C)(C)CC3	inactive
CCCn1c(C)cc(/C=C(\C#N)C(=O)OCC(=O)NC(=O)NC(C)(C)C)c1C	inconclusive: 17.8 µM [inhibitor, single point]
COc1ccc(NC(=S)NC(NC(=O)/C=C/c2ccccc2)C(Cl)(Cl)Cl)cc1 (configuration not stated)	inactive
Cc1ccc(CS(=O)(=O)c2ccc(C(=O)N3CCN(c4ccccn4)CC3)cc2[N+](=O)[O-])cc1	inconclusive: 22.4 µM [inhibitor, single point]
CCOc1ccc(C2C(C(=O)/C=C/c3ccco3)=C(O)C(=O)N2CCN2CCOCC2)cc1OC (configuration not stated)	inconclusive: 10 µM [inhibitor, partial curve, poor fit]
Cc1cc(C)n(CC(=O)N/N=C/c2ccc([N+](=O)[O-])s2)n1	inconclusive: 1.26 µM [inhibitor, partial curve, poor fit]
O=C1c2cccc3c(N4CCCCC4)ccc(c23)C(=O)N1CCO	inconclusive: 20 µM [inhibitor, partial curve, poor fit]
COC(=O)c1cc(Nc2nc3ccccc3nc2NS(=O)(=O)c2ccc(C)cc2)ccc1Cl	active: 11.2 µM
O=C(N/N=C/c1sc(=O)n(Cc2ccc(Br)cc2)c1Cl)c1ccco1	inconclusive: 35.5 µM [inhibitor, single point]
N#CC(C#N)=C1C=CC=CN1/C(=C\c1ccccc1)C(=O)c1cccs1	inconclusive: 22.4 µM [inhibitor, single point]
O=C(C1=NN(c2ccccc2)C2C(=O)N(c3ccccc3Cl)C(=O)C12)c1ccccc1 (configuration not stated)	inconclusive: 25.1 µM [inhibitor, single point]
Cc1ccc(C)c(Cn2nnc3c(=O)[nH]c(C4CCN(S(=O)(=O)c5ccc(S(=O)(=O)NC6CC6)cc5)CC4)nc32)c1	inconclusive: 35.5 µM [inhibitor, single point]
Nc1c(C(=O)Nc2ccc(F)cc2)sc2nc(-c3cccs3)cc(C(F)(F)F)c12	inconclusive: 0.562 µM [inhibitor, full curve, poor fit]
O=C(NCC(=O)N1CC=C(c2ccccc2)CC1)c1ccc(OC(F)F)cc1	inconclusive: 10 µM [inhibitor, partial curve, poor fit]
Cc1cccc(N2C(=O)C(Oc3ccc(Cl)cc3Cl)C2C=O)c1C (configuration not stated)	inconclusive: 22.4 µM [inhibitor, single point]
O=[N+]([O-])c1cc(/C=N/n2cnnc2)ccc1N1CCCC1	inconclusive: 5.62 µM [inhibitor, single point]

3 entries picked at random from those above, as already listed:
SMILES	Potency
N#Cc1c(-c2ccccc2)cc(-c2ccccc2)[nH]c1=O	inactive
COc1ccc2[nH]c3c(c2c1)CCNC3c1ccc([N+](=O)[O-])o1 (configuration not stated)	active: 25.1 µM
Cc1ccc(C)c(Cn2nnc3c(=O)[nH]c(C4CCN(S(=O)(=O)c5ccc(S(=O)(=O)NC6CC6)cc5)CC4)nc32)c1	inconclusive: 35.5 µM [inhibitor, single point]
